Results taken from PubChem BioAssay AID1347076 (National Center for Advancing Translational Sciences (NCATS), 2019).
Out of some 400,000 compounds screened, about 13,000 (3.2%) were called active. Inconclusive means that the source gave no clear call. Such entries were picked first, then a sample of the others. The call rests on the fitted dose curve; in most records, active means well fitted cell-killing curve with a large enough effect; inconclusive means small, poorly fitted or top-dose-only effect, or effect the other way; inactive means flat fitted curve, though single readings scatter. Potencies of inconclusive entries are doubtful fits and often do not repeat.

assay: qHTS assay for MDR1-selective chemotherapeutics: Primary screen using the drug-selected MDR subline cells KB-V1; conditions: KB-V1 MDR cells viability, CellTiter-Glo, 72 h; activity change, negative = cytotoxicity: at 46.1 µM (top of the series); further: nearly all actives have a fitted effect of over 60% in size
Method in brief: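 Cytotoxicity via CellTiter-Glo luminescence after 72 h compound exposure at 37 degrees C. Cells: drug-selected KB-V1 line, DMEM phenol-red free plus 10% FBS. Compounds tested at multiple concentrations; normalized data fitted to concentration-effect curves.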
On the % scale 0 is the no-effect control and ±100 the full control effect; potency means the concentration at half of the fitted maximal effect.

SMILES | Potency | activity change, negative = cytotoxicity
COc1ccc(NCC(=O)N/N=C(\C)c2cc3ccccc3o2)cc1 | inconclusive: 1.84 µM [rising, partial curve, poor fit] | 
Cn1ncc(N=Cc2ccccc2O)c1C(=O)Nc1ccccc1 | inconclusive: 11.6 µM [rising, partial curve] | 
Cc1ccc(C(=O)O)cc1N=Cc1cc(Br)cc(Br)c1O | inconclusive: 29.1 µM [cytotoxic, single point] | 
Cc1ccc(NC(=O)C(C)SCc2nc3sc(C)c(C)c3c(=O)[nH]2)nc1 (centres undefined) |  | inactive: -1.4%
CCOc1ccc(C(=O)N2CCN(Cc3ccccc3)CC2)cc1 | inconclusive: 23.1 µM [cytotoxic, single point] | 
CCn1cc(C(=O)N2CCCC2)c(=O)c2cc(S(=O)(=O)N3CCC(C)CC3)ccc21 | inconclusive: 14.6 µM [rising, partial curve, poor fit] | 
CCc1nc(=O)c(-c2ccccc2)c(C)n1-c1ccccc1 | inconclusive: 29.1 µM [rising, partial curve, poor fit] | 
Cc1ccc(S(=O)(=O)N2CCCN(c3nc(-c4cccs4)nc4ccccc34)CC2)cc1 | inconclusive: 29.1 µM [cytotoxic, partial curve, poor fit] | 
CSc1ncc(C(=O)N2CCN(c3cc(C)ccc3C)CC2)c(C)n1 |  | inactive: -1.21%
CCCCC1S/C(=N/N=C/c2ccc(OC)cc2)N(Cc2ccc(OC)cc2)C1=O (centres undefined) | active: 8.2 µM | 
Cc1ccc(-n2c(Cc3cccn3C)nnc2SCC(=O)Nc2ccc3c(c2)OCO3)cc1 | active: 3.66 µM | 
CC(C)CCn1cnc2c(NCc3ccccc3)ncnc21 | active: 16.4 µM | 
CC(=O)Nc1ccc(S(=O)(=O)NC2CC(=O)N(c3ccc(C)c(C)c3)C2)cc1 (centres undefined) |  | inactive: 13.7%
COc1ccc(OC)c(CN2C(=O)CN(S(C)(=O)=O)CC2(C)C(=O)Nc2c(C)cccc2C)c1 (centres undefined) |  | inactive: -4.72%
CCCCn1c(N)c(N(CC(C)C)C(=O)c2ccc(COc3ccccc3)o2)c(=O)[nH]c1=O | inconclusive: 9.2 µM [rising, partial curve, poor fit] | 
CC(C)Cn1c2c(c(O)c(C(=O)Nc3ncccc3O)c1=O)CCCC2 | inconclusive: 11.6 µM [cytotoxic, partial curve] | 
OC1(c2cccc(C(F)(F)F)c2)CCN(Cc2nnnn2CCc2ccccc2)CC1 | inconclusive: 16.4 µM [cytotoxic, partial curve] | 
CCOc1cc(-c2nnc(SCC(=O)NC3CCCC3)nc2-c2ccc(OC)c(OCC)c2)ccc1OC |  | inactive: 3.85%
CC(Sc1cnc2ccccc2n1)C(=O)O (centres undefined) | inconclusive: 0.651 µM [rising, partial curve, poor fit] | 
C=CCc1cccc2cc(C(=O)NC3=C(C#N)CCC3)c(=O)oc12 | inconclusive: 25.9 µM [rising, single point] | 
Cc1cc(N2CCN(C)CC2)nc2ccc(NC(=O)CCC(=O)NCCC3=CCCCC3)cc12 | inconclusive: 29.1 µM [cytotoxic, partial curve, poor fit] | 
COC(=O)c1ccc(Sc2ccccn2)c([N+](=O)[O-])c1 | inconclusive: 20.6 µM [cytotoxic, single point] | 

SMILES | Potency | activity change, negative = cytotoxicity
COc1cc(-c2nnc(-c3cc(OC)c(OC)c(OC)c3)o2)cc(OC)c1OC |  | inactive: -17.6%
CC1CCCN(CCCNC(=O)c2coc3nc4ccccc4nc23)C1 (centres undefined) | inconclusive: 32.6 µM [rising, single point] | 
Nn1cnnc1N/N=C/c1ccc(F)cc1 |  | inactive: 2.92%
Cc1ccc(/C=C2\CCCC3=C2NC(=S)NC3c2ccc(C)cc2)cc1 (centres undefined) | active: 16.4 µM | 
O=C1NN=C(c2ccc(Br)cc2)CC1c1ccc(Cl)cc1 (centres undefined) | inconclusive: 18.4 µM [cytotoxic, single point] | 
CN(C)C1=NCCN1CCc1cccc(F)c1 |  | inactive: 13.1%
CC(=O)NC(Cc1cccc(F)c1)C(=O)NC1CCN(C(=O)c2ccc(C)cc2)CC1 (centres undefined) | inconclusive: 29.1 µM [rising, single point] | 
CC(C)NC(=O)c1[nH]nc2c1CCc1ccccc1-2 |  | inactive: 0%
O=S(=O)(NCCNc1ncc(C(F)(F)F)cc1Cl)C(F)(F)F | inconclusive: 23.1 µM [cytotoxic, single point] | 
CC(C)N1CCC(C)(C(=O)Nc2cccc3c2CCCC3)C1 (centres undefined) |  | inactive: 6.45%
O=C(NCCCCCCCCNC(=O)c1cccc2ccccc12)c1cccc2ccccc12 | inconclusive: 3.26 µM [cytotoxic, partial curve, poor fit] | 
CCOCCCNC(=O)C(c1ccc(Cl)cc1)N(Cc1cccs1)C(=O)c1ccccn1 (centres undefined) | inconclusive: 2.59 µM [cytotoxic, full curve] | 
COc1ccc(NC(=O)CN(c2ccc([N+](=O)[O-])cc2)S(=O)(=O)c2ccccc2)c(OC)c1 | inconclusive: 5.17 µM [cytotoxic, partial curve] | 
CC(=O)O[C@H]1CC[C@@]2(C)C(=CC[C@H]3[C@@H]4CC[C@H](C(C)=O)[C@@]4(C)CC[C@@H]32)C1 | inconclusive: 23.1 µM [cytotoxic, single point] | 
Cc1ccc(-c2nnc3ccc(SCC(=O)N4CCc5ccccc54)nn23)cc1 |  | inactive: -5.06%
COc1ccc(NC(=S)N2CCC(C(=O)c3ccc(OC)cc3)CC2)cc1 |  | inactive: 0%
CC(C)N1C(=O)C(=O)N(CC(=O)N(C)c2ccccc2)C1=O | inconclusive: 29.1 µM [rising, single point] | 
O=C(NCCCN1CCOCC1)c1c(O)c2cc(Br)cc(Br)c2[nH]c1=O | inconclusive: 3.66 µM [cytotoxic, partial curve, poor fit] | 
Cc1cc(Br)ccc1OCCCCNCCO |  | inactive: 7.02%
Cc1cccc(N(C(=O)Cc2cccs2)C(C(=O)NC2CCCC2)c2ccncc2)c1 (centres undefined) | inconclusive: 9.2 µM [cytotoxic, partial curve] | 
O=C1/C(=C\c2ccccc2Cl)SC(=S)N1CCC(=O)N1CCCc2ccccc21 | inconclusive: 29.1 µM [cytotoxic, single point] | 
CCn1c(=O)c([N+](=O)[O-])c(NCCc2ccc(OC)c(OC)c2)c2ccccc21 | inconclusive: 7.31 µM [cytotoxic, partial curve] | 

Taken from above, 4 compounds:
SMILES | Potency | activity change, negative = cytotoxicity
Cc1ccc(/C=C2\CCCC3=C2NC(=S)NC3c2ccc(C)cc2)cc1 (centres undefined) | active: 16.4 µM | 
O=C1NN=C(c2ccc(Br)cc2)CC1c1ccc(Cl)cc1 (centres undefined) | inconclusive: 18.4 µM [cytotoxic, single point] | 
CN(C)C1=NCCN1CCc1cccc(F)c1 |  | inactive: 13.1%
CC(=O)NC(Cc1cccc(F)c1)C(=O)NC1CCN(C(=O)c2ccc(C)cc2)CC1 (centres undefined) | inconclusive: 29.1 µM [rising, single point] | 
